Values are relative to the signal before dosing, not to a vehicle control; the signal also falls without drug.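 Fibroblast labels denote human fibroblasts, mainly primary ones from uterus (C12385, HUF), lung (H6013), bone (Hs27A), adrenal (HADF) and skin (WS1), plus mammary HMF and breast cancer-associated Hs343T. Cancer cells are basal-like or mesenchymal-like triple-negative breast cancer lines. A hit is a response shift exceeding 3x replicate standard deviation. The tissue of the other fibroblasts is not given here.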
Test system: MDAMB468
Assay: relative JC-1 red fluorescence (viability) vs pre-drug, coculture with fibroblast (fraction); higher = more viable cancer cells
Experimental: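 JC-1 labelled TNBC cells cocultured 1:1 (1,500 cells each) with CellTrace Violet stained primary or stromal fibroblasts in 384-well plates in FluoroBrite medium, treated with one of 42 anticancer drugs at 0.1, 1, 10 or 100 uM. JC-1 red fluorescence (mitochondrial integrity in cancer cells only) was read by plate reader every 8 h for 72 h. Values are normalised to each well's pre-drug value. The stock of one drug was tenfold lower, so its dose labels may be too high.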

CC/C(=C(\c1ccccc1)c1ccc(OCCN(C)C)cc1)c1ccccc1 [Tamoxifen]
relative JC-1 red fluorescence
Conditions | 8 h | 16 h | 24 h | 32 h | 40 h | 48 h | 56 h | 64 h | 72 h
0.1 µM, coculture fibroblast: C12385 | 0.904 | 0.835 | 0.841 | 0.7994 | 0.7658 | 0.76921 | 0.7332 | 0.7168 | 0.716
0.1 µM, coculture fibroblast: H6013 | 0.898 | 0.835 | 0.814 | 0.805 | 0.766 | 0.767 | 0.739 | 0.727 | 0.686
0.1 µM, coculture fibroblast: H6019 | 0.816 | 0.801 | 0.788 | 0.747 | 0.699 | 0.699 | 0.651 | 0.62 | 0.597
0.1 µM, coculture fibroblast: H6076 | 0.951 | 0.905 | 0.891 | 0.905 | 0.839 | 0.836 | 0.801 | 0.792 | 0.855
0.1 µM, coculture fibroblast: H6231 | 0.81 | 0.95 | 0.877 | 0.825 | 0.756 | 0.724 | 0.67 | 0.645 | 0.631
0.1 µM, coculture fibroblast: HADF | 0.90003 | 0.82 | 0.781 | 0.784 | 0.727 | 0.717 | 0.67 | 0.658 | 0.617
0.1 µM, coculture fibroblast: HCFa | 0.888 | 0.84 | 0.796 | 0.767 | 0.69 | 0.676 | 0.622 | 0.584 | 0.545
0.1 µM, coculture fibroblast: HCPF | 0.8999 | 0.976 | 0.8501 | 0.862 | 0.7936 | 0.7703 | 0.722 | 0.71719 | 0.711
0.1 µM, coculture fibroblast: HHSteC | 0.908 | 0.831 | 0.796 | 0.754 | 0.716 | 0.716 | 0.653 | 0.631 | 0.585
0.1 µM, coculture fibroblast: HMF | 0.8529 | 0.94755 | 0.874 | 0.849 | 0.7798 | 0.75951 | 0.7025 | 0.6802 | 0.66656
0.1 µM, coculture fibroblast: HPFa | 0.941 | 0.9001 | 0.841 | 0.797 | 0.756 | 0.743 | 0.672 | 0.64 | 0.565
0.1 µM, coculture fibroblast: HUF | 0.9 | 0.8074 | 0.743 | 0.68 | 0.631 | 0.609 | 0.569 | 0.541 | 0.516
0.1 µM, coculture fibroblast: Hs5 | 0.894 | 0.92 | 0.9048 | 0.9038 | 0.8345 | 0.81627 | 0.7903 | 0.7586 | 0.788
0.1 µM, coculture fibroblast: Hs27A | 0.86232 | 0.8099 | 0.7844 | 0.782 | 0.7371 | 0.738 | 0.6888 | 0.671 | 0.6119
0.1 µM, coculture fibroblast: Hs343T | 0.917 | 0.867 | 0.884 | 0.8746 | 0.808 | 0.782 | 0.728 | 0.714 | 0.69
0.1 µM, coculture fibroblast: WS1 | 0.8887 | 0.772 | 0.727 | 0.672 | 0.64 | 0.614 | 0.587 | 0.561 | 0.555
1 µM, coculture fibroblast: C12385 | 0.881 | 0.824 | 0.796 | 0.7438 | 0.70613 | 0.7 | 0.6563 | 0.6294 | 0.61395
1 µM, coculture fibroblast: H6013 | 0.9036 | 0.87 | 0.83506 | 0.835 | 0.816 | 0.83 | 0.801 | 0.787 | 0.739
1 µM, coculture fibroblast: H6019 | 0.836 | 0.803 | 0.7932 | 0.7491 | 0.7128 | 0.706 | 0.6585 | 0.6207 | 0.6004
1 µM, coculture fibroblast: H6076 | 0.911 | 0.956 | 0.963 | 0.915 | 0.94 | 0.942 | 0.927 | 0.921 | 0.922
1 µM, coculture fibroblast: H6231 | 0.844 | 0.917 | 0.832 | 0.82 | 0.759 | 0.739 | 0.697 | 0.669 | 0.66
1 µM, coculture fibroblast: HADF | 0.92013 | 0.8647 | 0.824 | 0.8236 | 0.779 | 0.775 | 0.731 | 0.723 | 0.669
1 µM, coculture fibroblast: HCFa | 0.856 | 0.8325 | 0.766 | 0.749 | 0.688 | 0.674 | 0.624 | 0.588 | 0.536
1 µM, coculture fibroblast: HCPF | 0.8974 | 0.8816 | 0.8267 | 0.83371 | 0.7639 | 0.733 | 0.7004 | 0.6981 | 0.694
1 µM, coculture fibroblast: HHSteC | 0.906 | 0.866 | 0.825 | 0.8 | 0.757 | 0.751 | 0.689 | 0.657 | 0.613
1 µM, coculture fibroblast: HMF | 0.831 | 0.936 | 0.892 | 0.871 | 0.8075 | 0.7903 | 0.739 | 0.725 | 0.712
1 µM, coculture fibroblast: HPFa | 0.9356 | 0.89974 | 0.857 | 0.811 | 0.783 | 0.779 | 0.703 | 0.671 | 0.586
1 µM, coculture fibroblast: HUF | 0.941 | 0.8646 | 0.8154 | 0.747 | 0.6933 | 0.6709 | 0.6255 | 0.6045 | 0.578
1 µM, coculture fibroblast: Hs5 | 0.9858 | 0.901 | 0.89 | 0.834 | 0.8 | 0.794 | 0.897 | 0.876 | 0.76
1 µM, coculture fibroblast: Hs27A | 0.8826 | 0.85 | 0.817 | 0.824 | 0.781 | 0.775 | 0.737 | 0.712 | 0.66
1 µM, coculture fibroblast: Hs343T | 0.8989 | 0.93 | 0.9 | 0.8994 | 0.821 | 0.808 | 0.773 | 0.7492 | 0.735
1 µM, coculture fibroblast: WS1 | 0.888 | 0.802 | 0.764 | 0.698 | 0.659 | 0.632 | 0.6 | 0.581 | 0.571
10 µM, coculture fibroblast: C12385 | 0.8975 | 0.9585 | 0.747 | 0.779 | 0.826 | 0.825 | 0.7201 | 0.7492 | 0.727
10 µM, coculture fibroblast: H6013 | 0.907 | 0.896 | 0.769 | 0.9202 | 0.861 | 0.849 | 0.818 | 0.886 | 0.825
10 µM, coculture fibroblast: H6019 | 0.885 | 0.94 | 0.91 | 0.931 | 0.831 | 0.87 | 0.833 | 0.906 | 0.873
10 µM, coculture fibroblast: H6076 | 0.952 | 0.755 | 0.855 | 0.755 | 0.875 | 0.813 | 0.908 | 0.801 | 0.841
10 µM, coculture fibroblast: H6231 | 0.846 | 0.839 | 0.936 | 0.923 | 0.892 | 0.89 | 0.838 | 0.811 | 0.802
10 µM, coculture fibroblast: HADF | 0.921 | 0.881 | 0.842 | 0.894 | 0.811 | 0.817 | 0.811 | 0.834 | 0.813
10 µM, coculture fibroblast: HCFa | 0.883 | 0.88 | 0.91 | 0.849 | 0.947 | 0.871 | 0.851 | 0.834 | 0.935
10 µM, coculture fibroblast: HCPF | 0.8694 | 0.873 | 0.77 | 0.792 | 0.738 | 0.859 | 0.775 | 0.839 | 0.743
10 µM, coculture fibroblast: HHSteC | 0.912 | 0.856 | 0.81 | 0.8537 | 0.847 | 0.822 | 0.819 | 0.876 | 0.784
10 µM, coculture fibroblast: HMF | 0.8728 | 0.746 | 0.73 | 0.828 | 0.817 | 0.847 | 0.756 | 0.842 | 0.821
10 µM, coculture fibroblast: HPFa | 0.935 | 0.9897 | 0.78 | 0.737 | 0.861 | 0.727 | 0.855 | 0.801 | 0.7401
10 µM, coculture fibroblast: HUF | 0.9346 | 0.9621 | 0.89 | 0.7699 | 0.791 | 0.835 | 0.832 | 0.8145 | 0.855
10 µM, coculture fibroblast: Hs5 | 0.899 | 0.854 | 0.767 | 0.826 | 0.7412 | 0.872 | 0.868 | 0.785 | 0.897
10 µM, coculture fibroblast: Hs27A | 0.86563 | 0.956 | 0.854 | 0.799 | 0.854 | 0.746 | 0.715 | 0.781 | 0.8059
10 µM, coculture fibroblast: Hs343T | 0.902 | 0.825 | 0.7186 | 0.9316 | 0.7459 | 0.858 | 0.845 | 0.838 | 0.879
10 µM, coculture fibroblast: WS1 | 0.955 | 0.821 | 0.907 | 0.816 | 0.825 | 0.883 | 0.929 | 0.9407 | 0.913
